# Binding screen against folded nucleic acids

From ROBIN, a set of small-molecule microarray screens (doi:10.1002/anie.202211358).

Targets (5′ to 3′):
SAM-II: SAM-II riboswitch RNA pseudoknot, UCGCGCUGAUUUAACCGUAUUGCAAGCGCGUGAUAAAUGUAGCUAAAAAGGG. About 200 hits among about 21,000 compounds.
PreQ1: PreQ1 riboswitch RNA pseudoknot, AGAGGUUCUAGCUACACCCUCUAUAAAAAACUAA. From B. subtilis. About 170 hits among about 24,000 compounds.
TPP: TPP riboswitch RNA three-way junction, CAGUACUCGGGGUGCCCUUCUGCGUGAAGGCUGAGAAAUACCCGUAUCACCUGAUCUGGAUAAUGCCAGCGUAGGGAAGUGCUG. About 160 hits among about 24,000 compounds.

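Each compound is printed as two spots on a slide made to bind it covalently, so it has no test concentration; the read-out is fluorescence of the bound, labelled oligonucleotide. For the PreQ1, TPP and SAM-II riboswitches the laboratory earlier reported (doi:10.1038/s41467-019-09493-3) 1 µM RNA, 2 h, and a rule that included a mean Z-score above 3 (spot signal-to-noise against the whole library), a score well above that on a control array, and duplicate spots agreeing (coefficient of variation under 100). The data file gives only the calls; its cut-offs may differ, and compounds hitting several targets are kept. The calls come from the array alone, and fixing a compound to the slide can hide its binding.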 Key: hit = hit, none = tested without a hit. The compounds are a random part of those screened. A dash means that no call is listed here.

structure | SAM-II | PreQ1 | TPP
CC(=O)c1c(NC2CCCCC2)oc(C)cc1=O | none | none | none
CCc1cc(-c2cc(-c3ccc(N4CCOCC4)cc3)nc(N)c2C#N)[nH]n1 | none | none | none
O=C(COc1cccc(-n2cnnn2)c1)N1CCOCC(CO)C1 (stereo not drawn) | none | none | none
COCCNC1CC(=O)N(c2ccccc2)C1=O (stereo not drawn) | none | none | none
CC(C)Nc1nc(Oc2ccc(=O)n(-c3ccccc3)n2)nc(N(C)C)n1 | none | none | none
Cc1ccc(-n2cnc3cc(NCc4ccccn4)ccc32)cc1 | none | none | none
Cc1cc(C)cc(Nc2c3c(nc4nncn24)CCC3)c1 | - | none | none
O=C1CC(Nc2ccc(Cl)cc2)C(=O)N1c1ccc(Cl)c(Cl)c1 (stereo not drawn) | none | none | none
NCCN1C(=O)CC[C@H]2CN(C(=O)c3cccc4nccnc34)CC[C@H]21 | none | none | none
C[C@@]1(C(=O)Nc2ccc(F)nc2)CCCN1c1nc(Nc2cc(C3CC3)[nH]n2)c2cccn2n1 | none | none | none
COC(=O)C1(c2ccccc2)CCN(C(=O)c2cn3c(n2)CNCC3)C1 (stereo not drawn) | none | none | none
N#Cc1c(-c2cccc(Cl)c2)c(C#N)c2nc3ccccc3n2c1N | none | none | none
Cc1ccc(C)c(NC(=O)c2nnn(Cc3cccc(F)c3)c2N)c1 | none | none | none
Cc1cc(NCc2cccnc2)n2ncc(-c3ccccc3)c2n1 | - | none | none
Nc1cc2c(cc1C(=O)c1ccccc1Cl)OCCO2 | none | none | none
Cc1oc2c(c1C(=O)N1CCOCC(O)C1)C(=O)CCC2 (stereo not drawn) | none | none | none
c1ccc2c(CCNc3ccc(Nc4ccncc4)cc3)c[nH]c2c1 | none | none | none
Cn1c(=O)c(Oc2ccc(F)cc2F)cc2cnc(NC3CCOCC3)nc21 | none | none | none
COc1ccc(-c2cnc(NCc3cccc(Cl)c3)n2C)cc1 | none | none | none
Nc1ccc(-c2nc3ccccc3o2)cc1 | none | none | none
CCCOc1ccc(-c2nc(-c3ccc([N+](=O)[O-])cc3)cs2)cc1 | none | none | none
C[C@H]1O[C@H](O[C@H]2[C@H](O)[C@@H](O)[C@@H](O[C@H]3[C@H](O)[C@@H](O)C(O)O[C@H]3CO)O[C@H]2CO)[C@H](O)[C@@H](O)[C@H]1N[C@H]1C=C(CO)[C@@H](O)[C@H](O)[C@@H]1O (stereo partly drawn) | none | none | none
CC(=O)Oc1cc2c(s1)CCN(C(C(=O)C1CC1)c1ccccc1F)C2 (stereo not drawn) | none | none | none
N#Cc1cccnc1Sc1ccccc1N | none | none | none
Cc1ccccc1-c1noc(CNC(C)Cn2cncn2)n1 (stereo not drawn) | none | none | none
Nc1nonc1C(=O)NCCNCc1cc(Cl)ccc1OCc1ccccc1 | none | hit | none
Nc1ncc(Cc2ccc(Cl)cc2Cl)s1 | none | none | hit
CS/C(=C\c1ccc(C(=O)c2ccc(C)cc2)n1C)S(C)=O (stereo not drawn) | none | none | none
CCCCCNC(=O)c1nn(-c2ccccc2F)nc1CO | - | none | none
CCc1nc(N)sc1C(=O)N1CCC(=O)N(Cc2ccccc2)C(CC)C1 (stereo not drawn) | none | none | none
CCOC(=O)/C(=N\O)C1=CSC2=NNC(C)(C)N12 | none | none | none
CCCn1c(CO)nc2ccccc21 | none | none | none
c1ccc(C2CCC(NCCc3c[nH]c4ccccc34)CC2)cc1 (stereo not drawn) | none | none | none
CC(=O)N1CCN(c2c(N)cccc2Cl)CC1 | none | none | none
COc1ccccc1-n1cc(-c2ccccc2)c2c(NCCN(C)C)ncnc21 | - | none | none
COc1cc2c(cc1-c1cc(-c3cc(C(=O)O)[nH]n3)nc(N)c1C#N)CCC2 | none | none | none
CCOC(=O)C1=C(c2ccccc2)OC(N)=C(C#N)C12C(=O)N(C)c1ccccc12 (stereo not drawn) | none | none | none
Cc1ccc(-n2cnc3cc(NCc4ccco4)ccc32)cc1 | none | none | none
Cc1ccc(C2=NN(CCO)c3nc4c(c(=O)n(C)c(=O)n4C)n3C2)cc1 | none | none | none
COc1ccc(NC(=O)C(=O)NCCCO)cc1Cl | none | none | none
NC(=O)c1cnccn1 | none | none | none
Cc1cc(=O)n2ncnc2n1COCCO | none | none | none
O=C(Cc1cn2ccsc2n1)N1CCC(Cc2ccc(CO)cc2)C1 (stereo not drawn) | none | none | none
COCc1cc(CNc2nc(N(C)C)nc3c2CCNC3)n[nH]1 | none | none | none
CCN1C(=O)NC(=O)C12CCN(c1cc(N)nc(C)n1)CC2 | none | none | none
CCC(O)c1nc2ccccc2n1CC(=O)N1CCOCC1 (stereo not drawn) | - | none | none
CC1=C(c2ccc(Cl)cc2)S(=O)(=O)N=C1Nc1ccc(F)cc1 | - | none | none
Cc1cc2cccc(NC(=O)N3CCCN([C@H]4COC[C@@H]4O)CC3)c2o1 | none | none | none
CCN(CC)CCNc1ncnc2c1sc1nc(-c3ccco3)c3c(c12)CC(C)(C)OC3 | none | none | none
O=C(NCCSc1cnn[nH]1)c1cn(CCC2CCCCN2)nn1 (stereo not drawn) | none | none | none
C/C(=N\O)[C@H]1CC[C@H]2[C@@H]3CC[C@@H]4C/C(=N/O)CC[C@]4(C)[C@H]3[C@@](C)(O)C[C@]12C | none | none | none
CCOc1ccc(-c2noc(-c3nnn(-c4cc(C)cc(C)c4)c3N)n2)cc1 | - | none | none
CN[C@@H](C)C(=O)N1CCC(c2nccn2CCOC)CC1 | none | none | none
CCc1nc2c(c(N3CCN(C(=O)c4ccc[nH]4)CC3)n1)CCNCC2 | none | none | none
CC(C)c1cc(Nc2ccc(N(C)C)cc2)n2nc(-c3cccnc3)nc2n1 | - | none | none
CCCc1ccc(CN2C[C@H](N)C[C@H]2C(=O)NC)o1 | none | none | none
O=C(Cn1ccc2ccccc21)N1CCN(CCO)[C@@H]2CS(=O)(=O)C[C@@H]21 | none | none | none
Cc1cc(N2CCN(Cc3ccccc3)CC(O)C2)nc(N)n1 (stereo not drawn) | none | none | none

The first 8 entries again:

| structure | SAM-II | PreQ1 | TPP |
|---|---|---|---|
| `CC(=O)c1c(NC2CCCCC2)oc(C)cc1=O` | none | none | none |
| `CCc1cc(-c2cc(-c3ccc(N4CCOCC4)cc3)nc(N)c2C#N)[nH]n1` | none | none | none |
| `O=C(COc1cccc(-n2cnnn2)c1)N1CCOCC(CO)C1` (stereo not drawn) | none | none | none |
| `COCCNC1CC(=O)N(c2ccccc2)C1=O` (stereo not drawn) | none | none | none |
| `CC(C)Nc1nc(Oc2ccc(=O)n(-c3ccccc3)n2)nc(N(C)C)n1` | none | none | none |
| `Cc1ccc(-n2cnc3cc(NCc4ccccn4)ccc32)cc1` | none | none | none |
| `Cc1cc(C)cc(Nc2c3c(nc4nncn24)CCC3)c1` | - | none | none |
| `O=C1CC(Nc2ccc(Cl)cc2)C(=O)N1c1ccc(Cl)c(Cl)c1` (stereo not drawn) | none | none | none |